Measurements reported in PubChem BioAssay AID1259308 (NCATS, 2017).

- Assay: 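Candidate targets for better recombinant protein yield in mammalian cells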 (primary screen)
- Cell system: human HEK293 embryonic kidney cells stably expressing firefly luciferase (HEK-CMV-Luc2-Hygro)
- Reagent: single siRNA against human genes, 0.8 pmol siRNA per well
- Time to read-out: 72 h
- Measurement: 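Luciferase light (ONE-Glo) measured on one replicate plate set and viability (CellTiter-Glo) on the other, scaled to a negative control siRNA, with robust z-scores and luciferase per cell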
- Scale: total luciferase, z-score and total luciferase, % of control: higher = more reporter protein produced; luciferase per cell, z-score: higher = more reporter output per viable cell; viable cells, % of control: higher = more viable cells
- Call rule: 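Active when the median/MAD z-score for overall luciferase is greater than 3; a gene was taken forward for validation with new siRNAs if at least two of its three siRNAs passed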
- Calls: active = raised luciferase; inactive = no rise
This is one part, drawn at random, of about 59,000 reagents. Over the whole deposit, about 1,510 (2.6%) are marked active. 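Calls use total luciferase alone and ignore viability, so some active siRNAs may act by altering cell number.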 Entries without a mark were called inactive. Reagents against one gene are numbered here.

| target | reagent no. | total luciferase, z-score | total luciferase, % of control | luciferase per cell, z-score | viable cells, % of control |
| --- | --- | --- | --- | --- | --- |
| RPS24 | 1 | -1.39 | 54.3 | 0.442 | 54 |
| RPS24 | 2 | -1.92 | 43.7 | -0.176 | 51.2 |
| RPS24 | 3 | -2.14 | 39.2 | -1.55 | 66 |
| LOC284912 | 1 | 0.938 | 101 | 1.25 | 80.8 |
| LOC284912 | 2 | -0.176 | 78.4 | 0.0277 | 86.9 |
| LOC284912 | 3 | 0.591 | 93.6 | 0.863 | 83.4 |
| DBN1 | 1 | -0.938 | 63.2 | -0.397 | 78.4 |
| DBN1 | 2 | -1.28 | 56.5 | -0.954 | 81.2 |
| DBN1 | 3 | -0.354 | 74.9 | 0.173 | 79.9 |
| GGPS1 | 1 | -0.636 | 69.2 | -0.68 | 92.5 |
| GGPS1 | 2 | -0.988 | 62.2 | -1.13 | 93.7 |
| GGPS1 | 3 | 0.608 | 94 | 0.169 | 100 |

Entries above whose target name starts with R or r (3):
| target | reagent no. | total luciferase, z-score | total luciferase, % of control | luciferase per cell, z-score | viable cells, % of control |
| --- | --- | --- | --- | --- | --- |
| RPS24 | 1 | -1.39 | 54.3 | 0.442 | 54 |
| RPS24 | 2 | -1.92 | 43.7 | -0.176 | 51.2 |
| RPS24 | 3 | -2.14 | 39.2 | -1.55 | 66 |

Next results:
| target | reagent no. | total luciferase, z-score | total luciferase, % of control | luciferase per cell, z-score | viable cells, % of control |
| --- | --- | --- | --- | --- | --- |
| MIER1 | 1 | -0.388 | 74.2 | -0.588 | 96.8 |
| MIER1 | 2 | -0.681 | 68.3 | -1.75 | 121 |
| MIER1 | 3 | 0.819 | 98.2 | 0.376 | 99.4 |
| SPP2 | 1 | 0.337 | 88.6 | 0.433 | 88.3 |
| SPP2 | 2 | 0.264 | 87.1 | 1.52 | 65.2 |
| SPP2 | 3 | -0.369 | 74.5 | -0.522 | 95.6 |
| OBP2B | 1 | -0.252 | 76.9 | -0.13 | 88.9 |
| OBP2B | 2 | -1.35 | 55 | -1.23 | 85 |
| OBP2B | 3 | -1.66 | 48.9 | -0.0811 | 55.8 |
| ANKRD31 | 1 | -2.32 | 35.7 | -2.58 | 78.5 |
| ANKRD31 | 2 | -0.427 | 73.4 | -0.306 | 88.9 |
| ANKRD31 | 3 | -0.464 | 72.7 | -0.161 | 84.7 |
